Laboratory results published in patent US8344163B2, “Nitrile compound and its use for control of arthropod pest” (Sumitomo Chemical Company, Limited, priority 2008, dated 2013).
Some results were stated once for a whole list of compounds, not compound by compound. For at least one compound, name, drawing or mass did not settle the structure.

How the values were obtained:
Assay type in all cases: in vivo
Nilaparvata lugens [1] = assay: Test Example 1: foliar spray on rice plants, Nilaparvata lugens larvae; details: 500 ppm active ingredient, sprayed 20 ml/cup; 30 first-instar larvae released; counted after 6 days at 25° C.
Aphis gossypii = assay: Test Example 3: spray on cucumber, Aphis gossypii; details: 500 ppm active ingredient, sprayed 20 ml/cup; about 20 individuals placed 1 day before; counted after 6 days
Nilaparvata lugens [2] = assay: Test Example 2: rice plants absorb test solution from bottom of cup, Nilaparvata lugens larvae; details: 55.6 ppm active ingredient, 45 ml absorbed from bottom of cup; 30 first-instar larvae released after 6 days; counted after further 6 days at 25° C.

Row | SMILES | number of the parasitic pests (Nilaparvata lugens parasitic on the rice plants) (Nilaparvata lugens [1]) | number of the parasitic pests (Aphis gossypii on cucumber) (Aphis gossypii) | number of the parasitic pests (Nilaparvata lugens parasitic on the rice plants) (Nilaparvata lugens [2])
1 | CC(C)(C)ON=C1CCC(CC(C#N)(C#N)CCC(F)(F)F)CC1 (centres unmarked) [(10)] | ≤ 3 | – | –
2 | C#CC1(F)CCC(CCC(C#N)(C#N)CCC(F)(F)F)CC1 (centres unmarked) [(7)] | ≤ 3 | – | –
3 | C#C[C@H]1CC[C@H](CC(C#N)(C#N)CCC(F)(F)F)CC1 [(1t)] | ≤ 3 | ≤ 3 | ≤ 3
4 | C#CC1(O)CCC(CC(C#N)(C#N)CCC(F)(F)F)CC1 (centres unmarked) [(2)] | – | – | ≤ 3
5 | C=CCON=C1CCC(CC(C#N)(C#N)CCC(F)(F)F)CC1 (centres unmarked) [(11)] | ≤ 3 | – | ≤ 3
6 | CON=C1CCC(CC(C#N)(C#N)CCC(F)(F)F)CC1 (centres unmarked) [(8)] | ≤ 3 | ≤ 3 | ≤ 3
7 | C#CC1(F)CCC(CC(C#N)(C#N)CCC(F)(F)F)CC1 (centres unmarked) [(3)] | ≤ 3 | ≤ 3 | ≤ 3
8 | CCON=C1CCC(CC(C#N)(C#N)CCC(F)(F)F)CC1 (centres unmarked) [(9)] | ≤ 3 | ≤ 3 | ≤ 3
9 | C#CC12CCC(CC(C#N)(C#N)CCC(F)(F)F)CC1O2 (centres unmarked) [(4)] | ≤ 3 | ≤ 3 | ≤ 3
10 | C#C[C@H]1CC[C@@H](CC(C#N)(C#N)CCC(F)(F)F)CC1 [(1c)] | ≤ 3 | ≤ 3 | ≤ 3
